At least one compound was matched to its structure with a doubt left.
Test system: monolayer ES cells
Assay: In vitro differentiation of monolayer ES cells, RT-PCR of differentiation marker genes
Assay type: cell-based, mouse
Experimental: In vitro differentiation conditions. For differentiation experiments, cells were seeded in monolayers on gelatin-coated dishes and kept overnight in complete medium. The first day after seeding was defined to be day 0 of differentiation. The medium was then exchanged by complete medium lacking LIF or complete medium without LIF, but containing either 0.8% dimethylsulfoxide (DMSO) or 5×10^−7 M all-trans RA, respectively. Medium was exchanged daily and cells were harvested at the indicated time points for RT-PCR analysis. The vitality was determined by trypan blue staining. The vitality of detached cells was less than 5%.
Total RNA preparation (RNeasy kit, QUIAGEN) and first strand cDNA synthesis (Superscript II, Gibco) were done according to the manufacturers protocols. 1 μg of total RNA treated with DNAse I was used for reverse transcription. One twentieth of the RT reaction was included in a 25 μl PCR reaction. For quantitative analysis, SYBR Green PCR technology was used (Perkin Elmer). Real time detection of the PCR product was monitored by measuring the increase in fluorescence caused by the binding of SYBR Green to double-stranded DNA with ABI PRISM 7700 Sequence Detector. In order to do relative quantification, a threshold cycle (Ct), the cycle at which a statistically significant increase in fluorescence occurs, was derived from the resulting PCR profiles of each sample. Ct is a measure for the amount of template present in the starting reaction. To correct for different amounts of total cDNA in the starting reaction, Ct values of an endogenous control (Hprt) were subtracted from those of the corresponding sample, resulting in Ct. The relative quantitation value is expressed as 2Ct.
1 μg of total RNA was used for reverse transcription using Expand™ Reverse Transcriptase kit (Boehringer Mannheim) accoring to the suppliers instructions. […]
(B) Relative expression levels of differentiation markers in monolayer ES cells of different Srf genotype upon induction of in vitro differentiation by LIF withdrawal plus simultaneous addition of DMSO (quantitative RT-PCR analysis). […]

CC1=C(/C=C/C(C)=C/C=C/C(C)=C/C(=O)O)C(C)(C)CCC1 [RA, all-trans RA]
timing of mesodermal marker gene induction versus LIF withdrawal alone (SRF-containing (Srf(−/+)) ES cells in monolayer, LIF withdrawal plus agent): more rapidly than did LIF withdrawal alone | induction of mesodermal genes Bmp2 and T(Bra) (Srf(−/−) ES cells in monolayer, LIF withdrawal plus 5×10^−7 M all-trans RA): able to induce the mesodermal Bmp2 and T(Bra) genes | induction of skeletal Actin gene (Srf(−/−) ES cells in monolayer, LIF withdrawal plus RA): slight induction

Reference: patent US20040009913A1, “Use of serum response factor (srf) modulator for treating srf related diseases” (priority 2000, published 2004)
